Experimental data from patent EP4703382A1.
Results are given in words; binding and its absence hold for the method and conditions named. Some results given as binding are weak or reduced against the parent protein; the word gives no strength.

Amino acid sequences for entries named in this document (tags omitted). A change or cut given only in a name is not applied to a line headed by its entry.
UniProt P43431: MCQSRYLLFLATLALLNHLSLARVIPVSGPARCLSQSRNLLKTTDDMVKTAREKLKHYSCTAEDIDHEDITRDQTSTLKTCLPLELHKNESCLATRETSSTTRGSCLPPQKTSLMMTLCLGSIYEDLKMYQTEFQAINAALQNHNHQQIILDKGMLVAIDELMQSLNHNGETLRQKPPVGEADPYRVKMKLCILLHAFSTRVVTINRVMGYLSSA

Legend:
[1] = target: human PDL1-Fc fusion protein (human); assay: ELISA, human PDL1-Fc coated
[2] = target: human PDL1-Fc fusion protein (human); assay: BLI (ForteBIO Octet QKe), PDL1-Fc loaded

binding [1] | binding [2] | Substance
binds | binds | Fusion 3 (from UniProt P43431 23-215; P43432 23-335)
binds | binds | Fusion 4 (from UniProt P43431 23-215; P43432 23-335)
binds | binds | Fusion 5 (from UniProt P43431 23-215; P43432 23-335)
